# Screening data, single-dose tests

The values are deposited in ChEMBL (CHEMBL3988442, “University of Dundee, Small-Polar-MMV Screening Library” (2021)).

Mtb cholesterol medium: 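Phenotypic screen: M. tuberculosis growth, cholesterol and DPPC medium, 4 days; the read-out is not stated. Compounds at 50 µM. The record gives no direction; compounds that gave an IC50 in retests scored well above the rest, so higher reads as more growth inhibition. About 69,000 compounds were tested under these conditions; 0.54% (about 370) showed 50% or more at least once.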
Mtb glucose medium: 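Phenotypic screen: M. tuberculosis growth, glucose 7H9 medium, 3 days; the read-out is not stated. Concentration: 50 µM. Higher reads as more growth inhibition (inferred: compounds with an IC50 in retests scored well above the rest). About 69,000 compounds were tested under these conditions; 1.1% (about 760) showed 50% or more at least once.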

Results are given as percent effect. How 0% and 100% were set is not recorded. Most values in the screen are low, and negative values occur. This is an unselected part of the compounds tested. Two or more numbers in one place are separate tests of the same structure; such repeats can differ widely.

| compound | Mtb cholesterol medium | Mtb glucose medium |
|---|---|---|
| `CN(C)c1nccc(CNS(=O)(=O)c2ccc(F)c(Cl)c2)n1` | 4.397% | 13.55% |
| `Cc1ccc(CN2CCN(C(=O)c3ccc(Br)o3)CC2)cc1` | 21.11% | 68.82% |
| `COc1ccc(CN2CCOC3(CCCN(C(C)=O)C3)C2)cc1.O=C(O)C(F)(F)F` (configuration not stated) | -6.409% | 3.731% & 11.3% |
| `CC(CNC(=O)CCc1ccco1)N1CCc2sccc2C1` (configuration not stated) | -10.15% | -0.2957% |
| `CN1CC(=O)N(c2ccsc2)CC12CCN(C(=O)Nc1ccccc1)C2.O=C(O)C(F)(F)F` (configuration not stated) | -13.03% | 15.87% |
| `O=C(c1cn(-c2ccc(C(F)(F)F)cn2)nn1)N1CCCCCC1` | 12.48% | 4.666% |
| `Cc1cccc(CNC2(CCO)CCOCC2)c1C` | -16.84% | -2.412% |
| `CN(C)C(=O)c1cccnc1SCc1ccccc1Cl` | 20.02% | 15.93% |
| `Cc1nn(C)c(C)c1C1CCCN1C(=O)c1cc[nH]n1` (configuration not stated) | -14.4% | -10.97% |
| `O=C(NCC1CC1)C1CSCN1S(=O)(=O)c1cccc(F)c1` (configuration not stated) | 4.012% | 11.2% & -3.779% |
| `Cl.Cl.Cl.OC(CN1CCN(Cc2cccnc2)CC1)c1cccs1` (configuration not stated) | -5.547% | 1.922% & -19.95% |
| `c1ccc2sc(CN3CCCC3c3noc(C4CC4)n3)nc2c1` (configuration not stated) | -24.19% | -19.2% |
| `CC(C)CN1CCN(C(=O)c2cc(=O)c3ccccc3[nH]2)CC1` | -3.983% | 4.579% |
| `O=c1[nH]c(COc2ccc(Cl)cc2)nc2c1CCNC2` | -23.62% | -5.835% & -51.24% |
| `O=C(O)C(F)(F)F.[H][C@@]12C[C@@H](OCc3ccccc3F)CN1CCN(c1ncccn1)C2` | 0.827% | -2.357% & -3.588% |
| `[H][C@]12CN(C)CCN1C[C@@H](CO)[C@@H]2c1ccccc1` | 0.08832% | 17.43% |
| `Cc1nc(-c2ccoc2)n(CC(=O)N(C)CC(C)C)c1C` | -9.366% | -29.73% |
| `CCCN1CCCC2(CCN(Cc3cncn3C3CCCCC3)C2)C1=O` (configuration not stated) | 10.19% | 0.6034% & -20.12% |
| `C[C@@H]1CN(C(=O)CCCN2CCOCC2)C[C@@]1(O)C1CC1` | 6.097% | -4.025% |
| `Cc1nc(C(=O)N2CCCCC2c2ccc(CN(C)C)cc2)c(C)o1` (configuration not stated) | 1.024% | -5.342% |
| `O=C(c1cc2c([nH]c1=O)CCC2)N1CCCCCC1c1ccncc1` (configuration not stated) | -9.18% | 10.93% |
| `O=C(CCN1CCOCC1)Nc1cccc(CNCc2ccsc2)c1` | -14.55% | -17.11% |
| `Cc1nc(N2CCOCC2)nc2c1CN(CC(=O)N(C)C)CC2` | -16.12% & -1.456% | -10.68% |
| `O=C(NC1CCCN(CCc2ccccc2)C1)c1cnccn1` (configuration not stated) | 13.47% | 9.446% |
| `OCCCNC1CCc2cc3c(cc21)OCCO3` (configuration not stated) | 11.43% | -14.83% |
| `Cc1cc(S(=O)(=O)NCc2cccc(C(=O)N3CCCC3)c2)c(C)s1` | 9.804% | 8.116% |
| `COc1c(CNCc2ccc(N3CCOCC3)nc2)c(C)nn1C` | 1.147% | 18.45% |
| `Cc1cc(NC(=O)NCCOc2ccc(Cl)cn2)no1` | 10.91% & 8.027% | 43.85% |
| `Cc1cccnc1N1CCN(Cc2cc(O)c3cccc(F)c3n2)CC1` | 19.59% | -7.315% |
| `CN1CCCC(N(C)S(=O)(=O)c2cccc3ncccc23)C1` (configuration not stated) | -23.18% | -24.96% |
| `[H][C@@]12C[C@@H](c3nnc(C)[nH]3)O[C@]1([H])CN(C(=O)c1sccc1C)C2` | -1.181% | 1.992% & -2.463% |
| `COc1ccc(NS(=O)(=O)c2cnc(NC(C)=O)s2)cc1` | -16.53% | 33.56% |
| `CCc1cccc(N2CCC(NC(=O)c3ccoc3C)CC2)c1` | -18.5% | 21.36% |
| `O=C(Nc1cccnn1)NC(CCCO)c1ccccc1` (configuration not stated) | 11.42% | 4.339% |
| `O=C([C@H]1CCCO1)N1CCc2ncnc(NC3CC3)c2CC1` | -3.729% & -12.8% | -13.36% |
| `Cc1noc(C)c1CN(C)C(=O)C1CCCc2ccccc21` (configuration not stated) | 14% | 7.381% |
| `Cc1cc(C(=O)Nc2cnn(CC(=O)NC3CCCC3)c2)c(C)s1` | 5.816% & -6.875% | 22.99% |
| `O=C(c1ccoc1)N1CCN(Cc2ccccc2F)CC1` | -12.57% & -10.51% | -8.665% |
| `CN1C[C@@H](C(=O)N(C)C)[C@@]2(CCc3ccccc3C(=O)N2)C1.Cl` | 18.82% | -11.18% |
| `CNC(=O)CN1CCOCC2(C1)CN(C(=O)CC(C)C)CCO2.O=C(O)C(F)(F)F` (configuration not stated) | -24.44% | -5.357% |
| `CNC(=O)c1cn[nH]c1C1(C)CCCN(Cc2ccccc2OC)C1` (configuration not stated) | -6.669% | 21.57% |
| `O=C(CN1CCOc2ccccc2C1)N1Cc2cnn(CCO)c2C1` | -9.921% & -1.047% | 0.3397% |
| `CCOCc1ncn2c1CN(C(=O)Nc1cccc(F)c1)CC2` | 21.51% | 10.33% |
| `COc1ccc(CCNC(=O)CN2CCCC2c2noc(C)n2)cc1` (configuration not stated) | -6.296% | -42.26% & -2.536% |
| `CC(C)CCN1CN=C(NS(=O)(=O)c2ccc(F)cc2)NC1` | 3.503% | -1.267% |
| `COc1c(CNC(c2ccccc2)c2nccn2C)c(C)nn1C` (configuration not stated) | -20.55% | 3.293% |
| `CCNc1cc2c(nn1)CCN(C(=O)c1cc3ccccc3o1)C2` | 4.918% | -3.056% |
| `CN(c1ncnc2c1CCC2)C1CCCN(c2cccnn2)C1` (configuration not stated) | 5.601% & 6.418% | -38.86% |
| `Cc1ncc(CNC(=O)c2nn(C)c3c2CS(=O)(=O)CC3)s1` | 5.823% | 16.68% |
| `[H][C@@]12OCCN(CCN(CC)CC)[C@@]1([H])CC[C@@H]2OCc1ccccn1` | 8.379% | 12.47% & -2.726% |
| `CN(C)c1ncc(C2Nc3cc(Cl)ccc3C3=NCCCN32)cn1.Cl` (configuration not stated) | -9.141% | 5.855% |
| `O=C(NCCc1ccncc1)c1cccc(S(=O)(=O)NC2CCOC2)c1` (configuration not stated) | -4.711% | 14.62% |
| `Cc1cc(OC(F)F)c(C(=O)NCC(O)c2cccc(F)c2)s1` (configuration not stated) | 10.64% | 12.23% |
| `CCCc1ccc(CN2CCC3(CCC(=O)N(C(C)C(=O)O)C3)CC2)o1` (configuration not stated) | 8.804% | 3.821% |
| `O=C(c1cccc(O)c1)N1C[C@@H](CN2CCCCC2)[C@@H](CO)C1` | 9.567% & 2.514% | 11.02% |
| `COCCCNC(=O)CN(C)C(C)c1nc(C)no1` (configuration not stated) | -3.096% | -12.8% |
| `Cc1cnc(N2CCC3(CC2)CN(Cc2cccs2)CCO3)nc1.O=C(O)C(F)(F)F.O=C(O)C(F)(F)F` | 15.81% | 46.93% |
| `O=C(c1occc1CN1C(=O)Cc2ccccc21)N1CC(O)C1` | -16.04% | -18.62% |
| `[H][C@@]12COC[C@H](C(=O)N3CCCO3)[C@]1([H])CN(Cc1ccco1)C2` | 5.4% | 8.448% |
| `Cc1cc(N2CCCC2)nc(CNS(=O)(=O)Cc2ccccc2)n1` | 9.61% | 26.76% |
| `CCc1ccc(C2CC(=O)Nc3n[nH]cc32)o1` (configuration not stated) | 6.374% & 3.994% | 14.47% |
| `COc1c(CNCc2ccc(Cn3cccn3)cc2)c(C)nn1C` | -11.97% | -20.13% |
| `CC(C)C(C(=O)NC1CC1)n1cnc2cc(F)c(F)cc21` (configuration not stated) | -13.65% | 2.688% |
| `Cn1cc(C2CCCN2CC(=O)N(CCC#N)Cc2ccco2)cn1` (configuration not stated) | 2.878% | 31.37% |
| `Cc1cccc(N(CCC(N)=O)C(=O)c2ccnc(C)n2)c1` | 3.96% | 5.977% |
| `[H][C@]12CCCN(c3ncc(C)cn3)[C@@]1([H])CN(S(C)(=O)=O)C2` | 11.83% | -6.757% & 13.06% |
| `O=C(CCCNCc1ccc(Cl)c2cccnc12)NC1CC1` | -6.738% | 18.6% |
| `CC(C)N1CC(C(=O)NCc2cccnc2-n2cccn2)CC1=O` (configuration not stated) | -11.7% | -2.846% |
| `Cc1ccc2c(n1)N(Cc1csc(C)n1)CCN(C1CCOC1)C2.O=C(O)C(F)(F)F.O=C(O)C(F)(F)F` (configuration not stated) | 21.25% & 9.26% | 2.745% & 7.88% |
| `[H][C@@]12CCN(C(=O)NCC)C[C@]1([H])CCN(CC(N)=O)C(=O)C2` | -18.2% | -10.06% & -14.93% |

Some entries from above, unchanged:

compound	Mtb cholesterol medium	Mtb glucose medium
COc1ccc(NS(=O)(=O)c2cnc(NC(C)=O)s2)cc1	-16.53%	33.56%
OCCCNC1CCc2cc3c(cc21)OCCO3 (configuration not stated)	11.43%	-14.83%
CC(CNC(=O)CCc1ccco1)N1CCc2sccc2C1 (configuration not stated)	-10.15%	-0.2957%
Cc1ccc2c(n1)N(Cc1csc(C)n1)CCN(C1CCOC1)C2.O=C(O)C(F)(F)F.O=C(O)C(F)(F)F (configuration not stated)	21.25% & 9.26%	2.745% & 7.88%